Laboratory results: PubChem BioAssay AID1508600 (Functional Genomics Laboratory (NCATS/FGL), 2020)
Screen size: about 53,000 sequences; about 3,700 (7%) were called active.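 Rule for the calls: active = gene knockdowns whose robust z-score for IL-1 alpha signal is at least 2 or at most -2, so actives lie on both sides; inactive = the rest.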 The list shows a part of the results.

Assay: Components of the Cytosolic LPS Sensing Pathway: Gene Identification via Genome-wide siRNA Screen
Conditions: RAW264.7 macrophages, IL-1a HTRF, actives lie on both sides, screened at 100 nM (by protocol), cells primed 5 h with Pam3CSK4 first
Description: Non-canonical inflammasome activation by cytosolic LPS is a critical component of the host response to Gram-negative bacterial infection, however we lack a comprehensive understanding of the cellular processes that control this pathway. Here we describe a genome-wide siRNA screen to identify genes regulating the mouse macrophage IL-1 alpha response to cytosolic LPS.
RAW264.7 cells were maintained in complete DMEM media, comprising DMEM with 4.5 g/L glucose, 10% FBS (Gemini Bio-Products, West Sacramento, CA), 2 mM Glutamine (Lonza) and 20 mM HEPES (Lonza), hereafter complete DMEM.
The RNAi screen was conducted in 384-well format using the Ambion Silencer Mouse Genome siRNA Library (#4391425), which consists of three unique, nonoverlapping, nonpooled siRNAs for each of 17,000 gene targets. siRNA reagents ([…]) were stamped into 384-well white flat-bottom microplates (Corning, 3570) using a Velocity11 VPrep liquid handling system (Agilent) integrated into a BioCel robotic platform (Agilent) in columns 1-22, leaving columns 23-24 empty for negative (Ambion, Negative control #1) and positive (mouse Casp4) controls, respectively. The median value of each plate's negative control column was used to normalize sample wells, and the positive control was used to assess transfection efficiency and assay performance.
Lipofectamine RNAiMAX Transfection Reagent ([…]; Invitrogen) was added in […] serum-free, antibiotic-free media to plate wells using a Thermo Scientific Matrix WellMate and Microplate Stacker. Plates were incubated for 45 min at room temperature to allow for the sufficient formation of siRNA-lipid complexes. Cells were seeded at a density of 1x10^4 cells per well in 20 microL media containing 20% (vol/vol) FBS without antibiotics. The final concentration of siRNA in each well was 100 nM. Cells were cultured for 48h at 37 degrees C in 5% CO2 before addition of […] of TLR ligand Pam3CSK4 for 5 hours. The medium was then removed, replaced with […] growth media and cell were transfected with […] of LipidA and TransIT-TKO (Mirus) for 24 hour. At the end of the LipidA treatment, […] of supernatant was transferred to a 384 Greiner Bio-one non-binding low volume plate and […] of IL-1a HTRF reagent (Cisbio, 62MIL1APEH) was added and incubated at room temperature overnight. The plates were read on an EnVision plate reader (PerkinElmer). Cell viability was measured by adding 20ul Cell Titer Glo to the original plate and running a luminescence read on the EnVision. The quantified IL-1a signal for each siRNA gene-targeted well was divided by the median of the negative control wells and multiplied by 100 to achieve a negative control normalized value for each well/siRNA. This normalized value was then used to generate a robust z-score by first taking the log of each value and then by subtracting the median and dividing by the […].

| Sequence | z-score |
| --- | --- |
| GCAGGUGAAUCAGAUUGCUTT against LOC434448 | inactive: -1.2 |
| GGACAAGAAGGAAAAGAAATT against Brd4 | active: -3.25 |
| CCACAAUGACUGGAUUAAGTT against Atp6v1c1 | inactive: 0.196 |
| GGACACUUACGUCAUCGAGTT against Rtca | inactive: -0.814 |
| GCUGUUGAAACGACACUCGTT against Aars2 | inactive: -0.0434 |
| GGUCGUGUACAAGUACAUATT against Mrps24 | active: 2.24 |
| GCCAAUACCAGCUUGACAUTT against LOC434448 | inactive: 0.578 |
| GGAGAUUCUGAUGAAGAAGTT against Isca1 | inactive: 0.096 |
| GGAAGAGUGACUUGUGCAATT against Slc28a2 | inactive: 0.0125 |
| CCUCCUCUCUGUUUUCUACTT against Olfr699 | inactive: -1.16 |
| GGAUGUUAUUCGCCACGCGTT against Zfp335 | inactive: -0.134 |
| CCUACACAAAAUCACUUUGTT against Spata1 | inactive: -0.402 |
| GGUGGGAACCUGUACUCUATT against Pld2 | inactive: -1.54 |
| GCUCCGUGUUGACUCAAAATT against Foxg1 | active: 2.46 |
| GGCUCUUAUCAAGAAAUCUTT against Elp5 | inactive: -1.61 |
| GCGAAUUGGAACAGCUGACTT against Sh3glb1 | inactive: -0.982 |
| GGUAGAAAAAACACAAACGTT against Ppp2r3c | inactive: 1.43 |
| GGCAUUGAAUUACUUACAUTT against Slk | active: 2.46 |
| GGAUCUCUAACUUCACCAGTT against Katnbl1 | inactive: 0.691 |
| GCCUGAGGAAUCGUGACAUTT against Olfr51 | inactive: -1.58 |
| GGAGAUAAAUGUGUAGACCTT against Matn3 | inactive: 0.915 |
| GCCACCAUGUGCAACAUACTT against Ifit2 | inactive: 0.145 |

| Sequence | z-score |
| --- | --- |
| CGGAAGGAAGUGCCUAAACTT against Rcc2 | inactive: 0.668 |
| GGUCACACCCAUAAACUAATT against B630019K06Rik | inactive: -0.167 |
| GGAGACAUCAUCUGAAUAUTT against Hnmt | inactive: -0.431 |
| CAACUCCGGAAGACCAGGATT against Kpna7 | inactive: -0.319 |
| GCCCAUGGGUACAUGCAAUTT against 1810065E05Rik | inactive: 0.328 |
| GCCGAUGUAUCUACUUUGCTT against Rnase6 | inactive: 0.323 |
| CGUGAAGGAAACUUUUCAGTT against Prmt9 | inactive: -1.45 |
| GGUUCUCAGAGCCAGAAAUTT against Prl8a2 | inactive: -0.124 |
| GCAACAUCGUAUGUUAAUGTT against Slc9a4 | inactive: 0.0571 |
| GGCUAAUCACUAGAUUAGATT against Ldb2 | inactive: -0.397 |
| GCGAACUAUUCAAAAGUUATT against 4921504E06Rik | inactive: 0.265 |
| GGUUGCUAUUAUUAUUGGATT against Fnbp4 | inactive: 0.678 |
| GGAGACAGAGAUCAUUGAATT against Ruvbl2 | inactive: -1.94 |
| GGAAAUUAUGACAUGCACCTT against Eya3 | inactive: -0.699 |
| GGCUAUACUGUCAAUGUAUTT against Nsdhl | inactive: -0.656 |
| GGUGCAGUCUUAGGGAGGUTT against Rps6kb1 | inactive: 1.03 |
| CGACUGCUUAAUGAUUCCCTT against Pfdn4 | inactive: -1.5 |
| GAAGCUGCACAUCACCAGCTT against Fam43a | inactive: 0.927 |
| GCCUUAAGUGUUCAUGUAATT against Vhl | inactive: -0.872 |
| GGAAGCAUCUCAUUAUUCATT against Lamp2 | inactive: 0.0306 |
| GGUAACUUCCCAGGAGGGATT against Bcl9 | inactive: 0.549 |
| GGGAGUUUCUUAUUCACACTT against Lgi1 | inactive: -0.0481 |

Some of the entries above in a different format:
Sequence,z-score
GGAGACAGAGAUCAUUGAATT against Ruvbl2,inactive: -1.94
GGAAAUUAUGACAUGCACCTT against Eya3,inactive: -0.699
GGCUAUACUGUCAAUGUAUTT against Nsdhl,inactive: -0.656
GGUGCAGUCUUAGGGAGGUTT against Rps6kb1,inactive: 1.03
CGACUGCUUAAUGAUUCCCTT against Pfdn4,inactive: -1.5
GAAGCUGCACAUCACCAGCTT against Fam43a,inactive: 0.927

(listing goes on)

| Sequence | z-score |
| --- | --- |
| CCCACUGCCAAGUACAAUGTT against Dmwd | inactive: 1.44 |
| GGAGAUACAGAUGAAUGAATT against Atg16l1 | inactive: -0.169 |
| GGUGUAUAAUAUGAGAUAGTT against Rdx | inactive: 0.0621 |
| GGAGAACAAGGUGACUUGGTT against Irx1 | inactive: -0.0914 |
| CCAGAUUAACUACAAAUCCTT against Pten | inactive: -0.0127 |
| GGGACCCUGAGAAAAGACATT against Tln1 | inactive: 0.442 |
| GCCAAAUAGUUCCUUUCUGTT against Gatc | inactive: 0.734 |
| GGAUUAUGGGAAUUAACUATT against Mpdz | inactive: 1.06 |
| GGAUGCAAUUAGGAAAUUATT against Heatr5b | inactive: -0.516 |
| CCUGUACCUGCGUAUUCAATT against Grap | inactive: -1.63 |
| CCACCAUGCAACCUCCUGATT against Acsl6 | inactive: -0.455 |
| GCAACACCUUAUGUUUCAUTT against Cab39 | inactive: 1.68 |
| GGUGGUGGCAAAUAAAAUUTT against Smr2 | inactive: -1.46 |
| GGAACGACUACAAUGAACCTT against Lrr1 | inactive: -1.46 |
| GGAUUGCUUUUGAGCAACATT against Ccdc125 | active: -2.05 |
| GGAAAAAUUAGACCGUGAGTT against Pcdhb4 | inactive: -0.299 |
| GGACUUGGUGGUAAUCGACTT against Fig4 | inactive: 0.433 |
| GGAAGAGAAGUUCAUGAGCTT against Gabrr1 | inactive: -0.605 |
| GGCGGUUUCUUUUCAUUGGTT against Nhlh1 | inactive: 0.326 |
| GGAUUGAGAAAAUCUACAUTT against Tnfrsf8 | inactive: 0.505 |
| GCUCAUGCUCUUAUGUUAGTT against Vamp3 | inactive: 0.353 |
| GGCCGAAUAAUGCAUAUACTT against Ythdf2 | inactive: -1.59 |

| Sequence | z-score |
| --- | --- |
| GGUUCAUAAAGACAAACCUTT against Vmn1r71 | inactive: 0.568 |
| GGGCUUCAAACCCACAGAATT against Nova2 | inactive: -1.19 |
| GGUAGCGAUGUUUUCUUAUTT against Nt5dc3 | inactive: 1.66 |
| GUGCAAUCCUUCUUCUUCCTT against Olfr166 | inactive: -1.36 |
| GGAAGGUUUUACUCAGGCUTT against Vps50 | inactive: -1.06 |
| GGCUUCUUUGUCAUAGGAGTT against Olfr353 | inactive: 0.287 |
| GGUCUUCAAAGAAAGGAUCTT against Farsb | inactive: -1.25 |
| GGAAGGUAACUGGAAGGAGTT against Snx4 | inactive: 1.84 |
| GGAGAAACAGCAAGUAUCUTT against Il21r | inactive: -0.308 |
| GCAGAUAACUACUGCCACGTT against Pkd1l3 | inactive: -0.86 |
| GCAAUGUUCGCUUGAAACUTT against Septin10 | inactive: 1.02 |
| GGCAGCAUUACACUGAAUCTT against Slc36a4 | inactive: 0.436 |
| GGCCAUUAACCAGUCUAUCTT against Cdhr5 | inactive: 0.977 |
| GGAGCAAAGCUAAAUGUUGTT against Far1 | inactive: -0.476 |
| GGUAUGCACCUGUAACUCATT against Kcnk1 | inactive: 1.48 |
| GGGAUAUCCAAAGUCACGGTT against Capza3 | inactive: 0.305 |
| CCUACGUCAUUUCAGCACCTT against Hc | inactive: 0.356 |
| GGAUUCUCCAUUCUCAGUGTT against Serinc2 | inactive: -0.353 |
| GGGACCCUACAAAAUCAUUTT against Ganab | inactive: 0.467 |
| GGACAGCUCUCUCCAUACATT against Tlr9 | inactive: 0.653 |
| GGUCCUAUUUAUUAAUACCTT against Emid1 | inactive: -0.0264 |
| GGAGGCUUUUCAGACCAAGTT against 3830406C13Rik | inactive: 0.334 |

| Sequence | z-score |
| --- | --- |
| GGAGAAAAAAGUGAAACUCTT against Cntn4 | inactive: -1.41 |
| GGCACAGAAAAUCUUCAAATT against Ap2a1 | inactive: 0.97 |
| CAAUAACACUGGUGCCGACTT against Adam34l | inactive: 1.73 |
| CCUCUCCCAUGUAGCUUACTT against Wdr38 | inactive: 0.306 |
| GGUCCUUCAUUUGGUUACATT against Dtna | inactive: 0.812 |
| GCUGGACCCUUAAGUGUAATT against Bmyc | inactive: 0.308 |
| GCAGGGAGGCAUCUUCUUUTT against Olfr3 | inactive: -0.22 |
| GGCUGGUACUUGAGUUCAATT against Soat1 | inactive: -0.00533 |
| GGAACAGUGCUUGUAUCAGTT against Clasrp | inactive: 0.675 |
| CGGAACUCUGCCACAAGUUTT against Zfp36 | inactive: 1.27 |
| CCAACAAUGAUUAAUCAGCTT against Meis1 | inactive: -1.38 |
| GGAACCUUCAGAGCGACUUTT against Trib3 | inactive: 0.224 |
| GGAUCAUACCAAAGUACACTT against Cyp2a12 | inactive: 1.32 |
| GGUAUUUUGUUUUUUGGGUTT against Olfm3 | inactive: 0.0347 |
| CCUGAACGACAGAUUGGCATT against Krt20 | inactive: -0.697 |
| GUGUGCUAUGAGCAAUGCCTT against Sprr2a1 | inactive: -1.34 |
| GGAAAAGUGGGUUGAAGUUTT against Ipp | inactive: 1.5 |
| GGAUUUCGGCUUUUUGAACTT against Bcas1 | inactive: 0.531 |
| CCAAAAGUCACGUUUCUCATT against Per2 | active: -2.09 |
